For assay [1], the target named is NIM1 bait of the two-hybrid screen (which of the three baits is not stated) (Arabidopsis) (UniProt P0A7C2+P93002). Nature of the assay: yeast two-hybrid screen (LexA bait, B42 prey library; Leu2 and LacZ reporters); bait not specified.
Assay [2] concerns the target full-length NIM1 bait (full length Arabidopsis NIM1 fused to the LexA DNA binding domain in pEG202) (Arabidopsis) (UniProt P0A7C2+P93002). Nature of the assay: yeast two-hybrid screen (LexA bait, B42 prey library; Leu2 and LacZ reporters).
In assay [3] the target is NIM366-594 bait (C-terminal portion of NIM1, amino acids 366-594, fused to the LexA DNA binding domain) (Arabidopsis) (UniProt P0A7C2+P93002). The assay is described as above.

Amino acid sequences for entries named in this document (tags omitted). A change or cut given only in a name is not applied to a line headed by its entry.
UniProt P0A7C2: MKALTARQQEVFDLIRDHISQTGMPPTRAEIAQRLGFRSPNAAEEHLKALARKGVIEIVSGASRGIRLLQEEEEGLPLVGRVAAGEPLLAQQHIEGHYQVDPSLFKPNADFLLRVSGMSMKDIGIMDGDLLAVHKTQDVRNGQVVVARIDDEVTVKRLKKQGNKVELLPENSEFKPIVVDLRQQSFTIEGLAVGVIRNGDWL
UniProt P93002: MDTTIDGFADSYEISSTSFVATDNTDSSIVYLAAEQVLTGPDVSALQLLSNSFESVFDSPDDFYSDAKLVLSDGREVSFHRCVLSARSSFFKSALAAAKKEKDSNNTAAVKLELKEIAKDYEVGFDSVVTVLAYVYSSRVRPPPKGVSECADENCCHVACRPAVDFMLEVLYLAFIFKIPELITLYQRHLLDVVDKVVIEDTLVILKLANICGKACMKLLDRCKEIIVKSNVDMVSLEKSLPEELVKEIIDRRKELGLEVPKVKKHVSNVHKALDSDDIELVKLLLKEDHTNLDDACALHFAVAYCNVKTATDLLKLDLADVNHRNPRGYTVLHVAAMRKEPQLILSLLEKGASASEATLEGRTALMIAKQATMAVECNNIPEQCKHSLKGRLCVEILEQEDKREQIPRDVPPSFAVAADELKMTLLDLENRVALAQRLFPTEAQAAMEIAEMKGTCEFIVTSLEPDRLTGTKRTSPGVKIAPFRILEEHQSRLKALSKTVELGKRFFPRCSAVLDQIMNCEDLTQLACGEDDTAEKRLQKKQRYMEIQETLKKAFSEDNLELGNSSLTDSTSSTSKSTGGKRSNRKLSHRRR

These are yes or no findings as the source states them, for the method shown. Some entries that bind do so weakly or less than the wild type. Sequences can lack the tags named with a protein.

Among the data in patent publication EP1730287B1 (Syngenta Participations AG, dated 2011) are binding values, retold here.

B1: NI19 clone (Arabidopsis NI19 cDNA clone from the pJG4-5 library, fused to the B42 transcriptional activation domain) (protein, not shown: large carriers)
chain: KKRQEEEERARVRRFPSFQPEDFIFMNKAEANNIEKAANESSSASNEYDGSKEKQEGSETNVCLDLNLSL
Take B1: the binding result in assay [1] is “binds”.

B2: NI16 clone (Arabidopsis NI16 cDNA clone from the pJG4-5 library, fused to the B42 transcriptional activation domain) (other, not shown: large carriers)
chain: MNNSLKKEERVEEDNGKSDGNRGKPSTEVVRTVTEEEVDEFFKILRRVHVATRTVAKVNGGVAEGELPSKKRKRSQNLGLRNSLDCNGVRDGEFDEINRVGLQGLGLDLNCKPEPDSVSLSL
notes: Prey of the yeast two-hybrid screen; also called NI16 protein
Consider B2, for which the binding entry in assay [2] and in assay [3] was “binds” each time.
